Results of single-concentration screens

Protein sequences, listed by entry. Tags and fused reporters are not part of them. Residues count along the entry.
UniProt A4I591, 1-473: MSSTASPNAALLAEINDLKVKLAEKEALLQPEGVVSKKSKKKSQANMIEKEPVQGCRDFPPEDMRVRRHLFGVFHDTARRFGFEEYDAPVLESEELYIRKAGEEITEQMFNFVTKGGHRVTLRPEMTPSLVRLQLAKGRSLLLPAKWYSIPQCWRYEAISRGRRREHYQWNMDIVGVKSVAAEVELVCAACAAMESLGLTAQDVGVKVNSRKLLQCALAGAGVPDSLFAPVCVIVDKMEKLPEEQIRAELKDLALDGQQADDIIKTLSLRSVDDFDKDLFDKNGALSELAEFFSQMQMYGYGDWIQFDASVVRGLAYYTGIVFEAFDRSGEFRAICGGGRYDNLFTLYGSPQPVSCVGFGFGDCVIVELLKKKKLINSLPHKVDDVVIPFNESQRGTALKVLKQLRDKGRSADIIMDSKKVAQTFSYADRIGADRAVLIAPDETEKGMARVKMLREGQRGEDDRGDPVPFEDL
UniProt I6X8D2, whole entry: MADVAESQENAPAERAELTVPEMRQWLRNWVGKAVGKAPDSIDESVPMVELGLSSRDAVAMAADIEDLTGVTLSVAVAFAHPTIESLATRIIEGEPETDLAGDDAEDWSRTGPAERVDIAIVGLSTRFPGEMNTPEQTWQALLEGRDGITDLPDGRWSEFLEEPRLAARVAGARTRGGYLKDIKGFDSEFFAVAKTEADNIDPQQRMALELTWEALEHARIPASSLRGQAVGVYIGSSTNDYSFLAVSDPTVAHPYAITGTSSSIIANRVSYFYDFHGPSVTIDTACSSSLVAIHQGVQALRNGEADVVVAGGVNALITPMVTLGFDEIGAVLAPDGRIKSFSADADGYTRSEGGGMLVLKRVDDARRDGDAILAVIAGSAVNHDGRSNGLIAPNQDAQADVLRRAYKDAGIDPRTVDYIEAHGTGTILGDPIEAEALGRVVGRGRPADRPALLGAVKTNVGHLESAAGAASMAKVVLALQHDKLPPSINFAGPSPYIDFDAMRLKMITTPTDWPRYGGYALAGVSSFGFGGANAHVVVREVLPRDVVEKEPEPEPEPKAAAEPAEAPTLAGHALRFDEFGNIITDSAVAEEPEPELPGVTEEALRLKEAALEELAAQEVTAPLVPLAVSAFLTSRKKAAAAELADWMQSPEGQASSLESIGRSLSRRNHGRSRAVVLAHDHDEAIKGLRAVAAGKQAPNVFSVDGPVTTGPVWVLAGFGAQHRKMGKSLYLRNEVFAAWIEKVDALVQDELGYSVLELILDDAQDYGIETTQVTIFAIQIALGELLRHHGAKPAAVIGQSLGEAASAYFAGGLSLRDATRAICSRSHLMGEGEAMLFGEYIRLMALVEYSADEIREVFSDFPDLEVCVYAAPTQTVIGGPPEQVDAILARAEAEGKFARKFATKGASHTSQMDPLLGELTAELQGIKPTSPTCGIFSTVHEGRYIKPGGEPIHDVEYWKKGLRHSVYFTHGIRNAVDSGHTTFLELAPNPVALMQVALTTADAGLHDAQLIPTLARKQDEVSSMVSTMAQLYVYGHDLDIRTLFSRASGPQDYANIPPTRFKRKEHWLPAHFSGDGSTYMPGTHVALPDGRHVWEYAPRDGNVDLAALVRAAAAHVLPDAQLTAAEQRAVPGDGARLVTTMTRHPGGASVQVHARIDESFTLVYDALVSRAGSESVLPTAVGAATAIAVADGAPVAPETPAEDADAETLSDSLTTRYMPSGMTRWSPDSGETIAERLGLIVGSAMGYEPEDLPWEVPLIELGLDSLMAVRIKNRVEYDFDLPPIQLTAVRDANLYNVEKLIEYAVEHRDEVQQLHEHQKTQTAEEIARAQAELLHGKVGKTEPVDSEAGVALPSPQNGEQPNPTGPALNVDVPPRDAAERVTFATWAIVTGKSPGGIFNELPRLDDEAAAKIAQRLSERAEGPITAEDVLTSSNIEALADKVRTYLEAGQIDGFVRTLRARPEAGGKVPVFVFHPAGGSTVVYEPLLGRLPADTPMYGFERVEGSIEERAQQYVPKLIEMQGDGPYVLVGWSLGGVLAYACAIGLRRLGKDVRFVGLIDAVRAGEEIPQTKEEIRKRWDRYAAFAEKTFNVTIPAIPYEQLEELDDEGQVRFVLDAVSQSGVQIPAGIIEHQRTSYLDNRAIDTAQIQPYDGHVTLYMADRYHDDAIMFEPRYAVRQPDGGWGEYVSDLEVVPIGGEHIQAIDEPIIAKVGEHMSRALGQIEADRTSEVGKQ

Leishmania in macrophages: 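Cell assay of Leishmania donovani living inside macrophages; the read-out is not stated. Concentration: 30 µM. Higher reads as stronger inhibition (inferred: compounds with an IC50 in retests scored well above the rest). Size under these conditions: about 69,000 compounds, about 1,000 of them at 50% or above in at least one test.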
LiHisRS: 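Histidine-tRNA ligase, Leishmania infantum (UniProt A4I591). Enzyme assay of histidyl-tRNA synthetase; the read-out is not stated. Compounds at 30 µM. The record gives no direction; compounds that gave an IC50 in retests scored well above the rest, so higher reads as stronger inhibition. The assay is labelled LdHisRS but filed under L. infantum. About 69,000 compounds were tested under these conditions; 0.6% (about 410) showed 50% or more at least once.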
Pks13 thioesterase: 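Polyketide synthase Pks13, Mycobacterium tuberculosis (UniProt I6X8D2). Enzyme assay of the thioesterase domain of polyketide synthase 13; the read-out is not stated. Concentration: 30 µM. The record gives no direction; the compounds picked for IC50 retests had high values, so higher reads as stronger inhibition. About 67,000 compounds were tested under these conditions; 0.46% (about 300) showed 50% or more at least once.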

Each number is a percent effect as filed. The controls that fix the scale are not given in the record; negative values are as filed. This is an unselected part of the compounds tested.

Result for COc1ccc(-c2nnc(SCC(=O)NCC(C)C)[nH]2)c(OC)c1 was Leishmania in macrophages: -15.81%; LiHisRS: 22.86%; Pks13 thioesterase: -31.23%. For Cl.O=C(N1CCCC1)N1CCc2c(CNc3ncccn3)cncc2C1 the result was Leishmania in macrophages: 5.867%. With CN1CCN(C(=O)Cn2nc(C(F)(F)F)c(Br)c2C2CC2)CC1 the screen gave Leishmania in macrophages: 39.36%; LiHisRS: 20.88%; Pks13 thioesterase: 2.665%. With O=C(O)C(F)(F)F.O=C(c1ccccc1)N1CCCn2c(CN3CCCCC3)nnc2C1 the screen gave Leishmania in macrophages: 33.95%. With O=C1NC2(CCN(Cc3cccnc3)CC2)CC1c1cccnc1 (stereo unspecified) the screen gave LiHisRS: 1.818%; Pks13 thioesterase: -5.291%.

For CN(Cc1ccco1)C1CCC12CCN(C(=O)C1CCOCC1)CC2.O=C(O)C(F)(F)F (stereo unspecified) the result was Leishmania in macrophages: -7.66%. With O=C(NCC1CCC1)c1cccc(CN2CCS(=O)(=O)CC2)c1 the screen gave Leishmania in macrophages: 14.97%; LiHisRS: 18.48%; Pks13 thioesterase: 0.3176%. CN(C)C[C@H]1OC[C@@H]2CCN(S(=O)(=O)c3cccs3)C[C@@H]21 gave LiHisRS: -5.882%; Pks13 thioesterase: -11.57%. For O=C([C@H]1COC[C@H]2CN(Cc3ccco3)C[C@H]21)N1CCCO1 the result was LiHisRS: 15.09%; Pks13 thioesterase: -15.52%. N#CC1(C(=O)NCCCNc2ccc(C(F)(F)F)cn2)CCCC1 gave Leishmania in macrophages: 17.64%; LiHisRS: -8.8%; Pks13 thioesterase: -9.801%.

Cc1ncsc1C(=O)NCCNC(=O)c1cccs1 read Leishmania in macrophages: 7.197%; LiHisRS: 16.51%; Pks13 thioesterase: -13.64%. For Nc1ncccc1C(=O)NCc1cccc(Br)c1 the result was Leishmania in macrophages: 45.5%; LiHisRS: 12.41%; Pks13 thioesterase: 11.7%. For COc1ccccc1C(=O)N1CCOC2(CCCN(C(C)=O)C2)C1 (stereo unspecified) the result was Leishmania in macrophages: 1.552%; LiHisRS: 8%; Pks13 thioesterase: 8.221%. For Cc1ccc(N2CCC3(CC2)CCN(C2CCOC2)CC3)nn1.O=C(O)C(F)(F)F (stereo unspecified) the result was Leishmania in macrophages: 29.83%. With CC(C)N1CCC(C(=O)N(C)C(C)c2ccon2)CC1 (stereo unspecified) the screen gave Leishmania in macrophages: 18.14%; LiHisRS: 12.9%; Pks13 thioesterase: -10.02%.

[H][C@@]12CCN(C(=O)c3cscn3)[C@]1([H])CN(S(C)(=O)=O)C2 gave Leishmania in macrophages: -3.872%. Result for O=C(Nc1cnn(C2CCOCC2)c1)c1ccc2c(c1)OCO2 was Leishmania in macrophages: -8.038%; LiHisRS: 4.878%; Pks13 thioesterase: 1.033%. CN(C)CC(=O)N1CC(c2nn(C)c3nccnc23)C1 gave Leishmania in macrophages: 6.221%; LiHisRS: 19.79%; Pks13 thioesterase: 13.96%. With CCn1cc(C#N)c(=O)c2cc(Br)ccc21 the screen gave Leishmania in macrophages: 26.79%; LiHisRS: 16.13%.

The first 2 entries again:

* COc1ccc(-c2nnc(SCC(=O)NCC(C)C)[nH]2)c(OC)c1 | Leishmania in macrophages: -15.81%; LiHisRS: 22.86%; Pks13 thioesterase: -31.23%
* Cl.O=C(N1CCCC1)N1CCc2c(CNc3ncccn3)cncc2C1 | Leishmania in macrophages: 5.867%

Source: ChEMBL document CHEMBL3988442, “University of Dundee, Small-Polar-MMV Screening Library” (2021).